This is one part of the list. Further columns of the screen follow, without active or inactive calls. Most of these compounds were active or inconclusive in the main read-out, so they are no random draw. Potencies come from curve fits of mixed quality, noted in brackets.
assay: IkB Signaling; settings: ABC-DLBCL IkBa-CBG/CBR dual luciferase ratio (green luciferase fused to IkBa over red control in OCI-Ly3 lymphoma cells), 4 h; measured here: control luc red channel unless noted
Summary of the method: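 Luminescence ratio of IκBα-fused green versus native red beetle luciferase in OCI-Ly3 cells, 4 h post-doxycycline with compound; red signal alone, scaled from basal (0%) to zero light (-100%), flagged nonspecific or cytotoxic effects.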

SMILES | AC50
CC(C)OC(=O)c1ccc(NC(=O)CSc2nc(-c3cccs3)cc(C(F)(F)F)n2)cc1 | 5.01 µM [falling, full curve, poor fit]
COc1ccccc1N1CCN(CCN2C(=O)c3ccccc3C(C)(C)C2=O)CC1 | 31.6 µM [falling, partial curve]
COc1ccc(NC(=O)CSCc2cc(=O)c3cc(Cl)ccc3[nH]2)cc1 | 6.31 µM [falling, partial curve, poor fit]
Cc1ccc(N2CC(NC(=O)C3CCCCC3)CC2=O)cc1 (stereo unspecified) | 5.01 µM [falling, partial curve]
CCc1ccc(C(=O)c2cn(CC(=O)Nc3ccc(F)cc3)c3ccc(F)cc3c2=O)cc1 | 25.1 µM [falling, single point]
Cc1cccc(C(=O)Nc2cc(-c3ccccc3F)nn2-c2ccccc2)c1 | 6.31 µM [falling, single point]
Cc1ccc(CC(=O)NCc2nc(-c3ccccc3)no2)cc1 | 15.8 µM [falling, partial curve]
O=C(NCCc1ccccc1Cl)c1cc2ccccn2n1 | 20 µM [falling, single point]
Cc1cc(SCC(=O)Nc2ccc(F)cc2F)nc(=O)[nH]1 | 3.98 µM [rising, single point] [measured here: IkB-luc green channel]
Cc1ccc(S(=O)(=O)NCCc2nnc3ccc(SCC(=O)Nc4c(C)cc(C)cc4C)nn23)cc1 | 10 µM [falling, partial curve, poor fit]
CCOc1ccc(CCNC(=O)c2c3c(nc4ccccc24)C(=O)N(C2CCCCC2)C3)cc1 | 31.6 µM [falling, single point]
Cc1ccc(C)c(NC(=O)c2oc(=O)c3ccccc3c2-c2ccccc2)c1 | 15.8 µM [falling, partial curve]
CCCc1nn2c(=O)cc(COC(=O)c3ccc4c(c3)OCO4)nc2s1 | 39.8 µM [falling, partial curve, poor fit]
Cc1ccc(-c2c(C(=O)Nc3ccccc3F)oc(=O)c3ccccc23)cc1 | 10 µM [falling, partial curve]
Cc1nc2cc(-c3cccc(F)c3)nn2c(N2CCOCC2)c1C | 3.16 µM [rising, partial curve, poor fit]
Cc1ccc(C)c(N2CCN(C(=O)Cn3cnc4nc5c(cc4c3=O)CCCC5)CC2)c1 | 25.1 µM [falling, partial curve]
CCOC(=O)c1cccc(NC(=O)C2=C(C)C(=O)OC23CCCCC3)c1 | 39.8 µM [falling, single point]
Cc1ccc(C)c(Cn2c(SCC(=O)NCc3ccccc3)nc3ccccc32)c1 | 39.8 µM [falling, single point]
COc1ccc(CNc2ncnc3c2c(-c2ccccc2)cn3-c2ccc(C)c(Cl)c2)cc1 | 0.0398 µM [falling, full curve, poor fit]
COc1cccc(C(=O)Nc2nc(-c3nnn(-c4cccc(Cl)c4C)c3C)ns2)c1 | 12.6 µM [falling, partial curve]
COc1ccc(NC(=O)Cn2c(=O)n(-c3ccc(OC)cc3)c(=O)c3sc4ccccc4c32)cc1 | 20 µM [rising, partial curve]

SMILES | AC50
O=c1[nH]c(=O)n(C2CCCCCC2)c(O)c1C=NCc1ccc(F)cc1 | 31.6 µM [falling, single point]
COc1ccc2c(CNCc3ccco3)c(C(=O)O)n(Cc3cccc(F)c3)c2c1 | 15.8 µM [falling, single point]
CCCN(CCC)C(=O)C1CCN(c2cc(C)nc3c(-c4ccc(Cl)cc4)c(C)nn23)CC1 | 15.8 µM [falling, partial curve]
O=C(NCCO)c1ccc(-c2nnc(Nc3ccc(OC(F)(F)Cl)cc3)c3ccccc23)cc1 | 25.1 µM [falling, partial curve]
Cc1ccnc(NC(=O)CCC2CCCCC2)c1 | 15.8 µM [falling, single point]
COc1cccc(CNCc2c(C(=O)O)n(Cc3ccc(C)cc3)c3cc(C)ccc23)c1OC | 31.6 µM [falling, partial curve]
CCC1CCCCN1CCCNC(=O)c1ccc2c(c1)N(Cc1cccc(Cl)c1)C(=O)c1ccccc1S2(=O)=O (stereo unspecified) | 15.8 µM [falling, partial curve]
C[C@@]12CCC(=O)C=C1CC[C@H]1[C@H]3CC[C@](O)(C(=O)CO)[C@]3(C)CC(=O)[C@@H]12 | 5.01 µM [rising, full curve, poor fit] [measured here: IkB-luc green channel]
O=c1oc2c(CN3CCOCC3)c(O)ccc2cc1-c1ccccc1 | 3.16 µM [rising, full curve]
O=C(NCCc1nc2ccccc2n1Cc1ccc(Cl)cc1)c1ccccc1 | 25.1 µM [falling, single point]
Cc1nnc(NC(=O)CSc2nc3c([nH]c4ccccc43)c(=O)n2-c2cccc(Cl)c2)s1 | 39.8 µM [falling, single point]
COc1ccc(-c2nc3ccccc3o2)cc1NC(=O)c1cc(Br)ccc1OC | 25.1 µM [falling, single point]
COc1ccc(CCNC(=O)c2cnc3sc(N4CCCCCC4)nn3c2=O)cc1 | 12.6 µM [falling, partial curve]
c1ccc(-c2noc(CSc3nnc(Cc4cccs4)n3-c3ccccc3)n2)cc1 | 20 µM [falling, single point]
O=C(COc1ccccc1)Nc1nc(-c2cccs2)cs1 | 39.8 µM [falling, single point]
CC(=O)Nc1nc2ccccc2n1CCOc1ccccc1Cl | 31.6 µM [rising, partial curve] [measured here: IkB-luc green channel]
COc1ccc(N2CCN(C(=O)C3CCCN(S(=O)(=O)c4ccc5c(c4)oc(=O)n5C)C3)CC2)cc1 (stereo unspecified) | 39.8 µM [falling, single point]
COc1ccccc1CCNC(=O)C1(c2cccs2)CCOCC1 | 31.6 µM [rising, single point]
COc1ccc(NC(=O)Cn2c(=O)oc3cc(S(=O)(=O)N4CCCC4)ccc32)cc1OC | 7.94 µM [falling, partial curve]
Cc1cccc(NC(=O)CN2C(=O)C(c3ccc(F)cc3)=NC23CCCCCC3)c1C | 20 µM [falling, partial curve]
Cc1c(C(=O)NCCC2=CCCCC2)oc2ccc(S(=O)(=O)N3CCOCC3)cc12 | 7.94 µM [falling, partial curve]

SMILES | AC50
Cc1ccc(C2C(C#N)=C(N)SC(N)=C2C#N)c(C)c1 | 25.1 µM [falling, single point]
Cc1ccc(-n2ncc3c(NC4CCCCC4)ncnc32)cc1C | 12.6 µM [falling, partial curve]
CCOC(=O)c1cc2c(=O)n3ccccc3nc2n(CCOC)c1=NC(=O)c1c(-c2c(F)cccc2Cl)noc1C | 0.251 µM [falling, full curve]
O=C(c1ccccc1)n1nc(-c2ccc(Cl)cc2)nc1NCc1ccco1 | 12.6 µM [falling, partial curve]
COC(=O)c1[nH]c2ccc(C)cc2c1NC(=O)CN1CCCC(C)(C)C1 | 25.1 µM [falling, partial curve]
CCCN(C(=O)c1ccc2c(=O)n3c(nc2c1)CCCCC3)c1cccc(Cl)c1 | 39.8 µM [falling, single point]
COc1ccc(OCC(=O)N2CCN(C(=O)c3ccc(OC)c(OC)c3)CC2)cc1 | 0.251 µM [rising, full curve, poor fit]
Cc1cccc(C)c1NC(=O)CCSCCc1ccccn1 | 3.16 µM [rising, single point]
COc1ccccc1CN1CCC(CNC(=O)c2cnn(-c3cccc(Cl)c3)c2C2CCN(C(=O)OC(C)(C)C)CC2)CC1 | 5.01 µM [falling, partial curve, poor fit]
O=C(CCS(=O)(=O)c1cc(Br)cc2c1N(C(=O)C1CC1)CC2)NCc1ccccc1Cl | 3.16 µM [rising, single point]
COC(=O)c1sccc1S(=O)(=O)N(CC(=O)Nc1c(C)cccc1C)c1ccc(C)c(C)c1 | 12.6 µM [falling, partial curve]
COc1ccc2c(c1)c(=O)c(S(=O)(=O)c1ccc(C)cc1)cn2Cc1ccccc1C | 25.1 µM [falling, single point]
COC(=O)C(C)n1nnc2sc(-c3ccccc3)cc2c1=O (stereo unspecified) | 15.8 µM [falling, single point]
CCC(C(=O)Nc1cc(F)ccc1F)n1nc(-c2cc(C)ccc2C)ccc1=O (stereo unspecified) | 25.1 µM [falling, single point]
Oc1c(Cl)cc(Cl)c(Cl)c1Cc1c(O)c(Cl)cc(Cl)c1Cl | 0.501 µM [falling, full curve]
Cc1c(NC(=O)C(C)(C)Oc2ccc(Cl)cc2)cccc1-c1nc2ncccc2o1 | 15.8 µM [falling, partial curve]
CCOC(=O)CC(=O)Nc1nc2ccccc2s1 | 39.8 µM [falling, single point]
CCCc1c(-c2ccc(O)cc2)nn(-c2ccc(O)cc2)c1-c1ccc(O)cc1 | 31.6 µM [falling, partial curve]
CCC(C(=O)Nc1ccccc1OC)n1nc(C)c2sc3ccccc3c2c1=O (stereo unspecified) | 25.1 µM [falling, single point]

Part of the list above, as labelled records:
COc1ccccc1CN1CCC(CNC(=O)c2cnn(-c3cccc(Cl)c3)c2C2CCN(C(=O)OC(C)(C)C)CC2)CC1
  AC50: 5.01 µM [falling, partial curve, poor fit]
O=C(CCS(=O)(=O)c1cc(Br)cc2c1N(C(=O)C1CC1)CC2)NCc1ccccc1Cl
  AC50: 3.16 µM [rising, single point]
